Literature values in patent US20220226239A1, “POLYMERIC MICELLE COMPLEXES, FORMULATIONS, AND USES THEREOF” (ARAVASC INC., priority 2019, published 2022).
Some entries share one result that the patent states for a list of compounds.

Settings: quoted in FIG. 3 legend against Formulation A

Row | Structure (SMILES) | half-life of free drug (comparison)
1 | O=c1[nH]cc(F)c(=O)[nH]1 [Formulation 5-FU, 5-fluorouracil, reference compound] | < 10 min
2 | O=c1[nH]c(=O)n([C@H]2C[C@H](O)[C@@H](COP(=O)(O)O)O2)cc1F [FdUMP, 5-Fluoro-2′-deoxyuridine-5′-O-monophosphate] | < 10 min
